Some results were stated once for a whole list of compounds, not compound by compound.
The compounds below were run against T1, CDK8/CycC (Homo sapiens, UniProt P49336) (assay: CDK8 inhibitory activity, QSS Assist STK ELISA Kit (CDK8/CycC)). Settings: at 1 M (so in the source) of test compound.
T1 construct: purchased Carna Bioscience
Format: biochemical

Sequences of proteins named here, by UniProt entry; tags and fusion partners are left off. A change or cut given only in a name is not applied to a line headed by its entry.
UniProt P49336: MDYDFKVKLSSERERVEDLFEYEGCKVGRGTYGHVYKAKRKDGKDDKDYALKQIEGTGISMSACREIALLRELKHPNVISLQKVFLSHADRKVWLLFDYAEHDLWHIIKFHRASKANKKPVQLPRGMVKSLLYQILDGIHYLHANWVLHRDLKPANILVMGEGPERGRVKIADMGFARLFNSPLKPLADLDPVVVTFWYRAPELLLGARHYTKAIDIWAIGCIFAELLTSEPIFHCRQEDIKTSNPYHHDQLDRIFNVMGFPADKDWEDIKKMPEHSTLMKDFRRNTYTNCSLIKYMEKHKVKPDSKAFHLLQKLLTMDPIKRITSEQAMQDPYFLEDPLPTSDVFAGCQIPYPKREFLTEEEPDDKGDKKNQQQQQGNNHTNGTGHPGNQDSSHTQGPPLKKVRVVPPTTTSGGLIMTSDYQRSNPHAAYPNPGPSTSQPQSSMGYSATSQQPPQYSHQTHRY

CDK8 inhibitory rate, not less than 90%:
NC(=O)c1ccc([N+](=O)[O-])c(Nc2ccc(N3CC(OCCO)C3)cc2)c1 [Compound 5, 3-{4-[3-(2-hydroxyethoxy)azetidin-1-yl]phenylamino}-4-nitrobenzamide]
COc1cc(Nc2ccc(N3CCN(CC(C)(C)C(=O)O)CC3)cc2)c([N+](=O)[O-])cc1F [Compound 13]
CC(=O)c1ccc(C(N)=O)cc1Oc1ccc(N2CC(OCCO)C2)cc1 [Compound 28, 4-acetyl-3-{4-[3-(2-hydroxyethoxy)azetidin-1-yl]phenoxy}benzamide]
CC(=O)c1ccc(C(N)=O)c(Oc2ccc(N3CC(OCCO)C3)cc2)c1 [Compound 29]
CC(=O)c1ccc(C(N)=O)cc1Oc1ccc(OCCOC2CCOCC2)cc1 [Compound 32, 4-acetyl-3-{4-[2-(tetrahydropyran-4-yloxy)ethoxy]phenoxy}benzamide]
CC(=O)c1ccc(C(N)=O)cc1Oc1ccc(OCCOCCOC(C)C)cc1 [Compound 33, 4-acetyl-3-{4-[2-(2-isopropoxyethoxy)ethoxy]phenoxy}benzamide]
C[C@@H](O)c1ccc(C(N)=O)cc1Oc1ccc(OCCOC2CCOCC2)cc1 [Compound 43]
CNC(=O)c1ccc([N+](=O)[O-])c(Nc2ccc(N3CC(OCCO)C3)cc2)c1 [Compound 48, 3-{4-[3-(2-hydroxyethoxy)azetidin-1-yl]phenylamino}-N-methyl-4-nitrobenzamide]
NC(=O)c1ccc([N+](=O)[O-])c(Nc2ccc(OCCOC3CCOCC3)cc2)c1 [Compound 50, 4-nitro-3-{4-[2-(tetrahydropyran-4-yloxy)ethoxy]phenylamino}benzamide]
NC(=O)c1ccc(C(F)(F)F)c(Oc2ccc(OCCOC3CCOCC3)cc2)c1 [Compound 64, 3-{4-[2-(tetrahydropyran-4-yloxy)ethoxy]phenoxy}-4-trifluoromethylbenzamide]
CC(C)OCCOCCOc1ccc(Oc2cc(C(N)=O)ccc2C(F)(F)F)cc1 [Compound 65]
CC(=O)c1ccc(C(N)=O)cc1Oc1ccc(OCCOC2CCOC2)cc1 (stereo not shown) [Compound 67, 4-acetyl-3-{4-[2-(tetrahydrofuran-3-yloxy)ethoxy]phenoxy}benzamide]
C=C(F)c1ccc(C(N)=O)cc1Oc1ccc(OCCOC2CCOCC2)cc1 [Compound 84, 4-(1-fluorovinyl)-3-{4-[2-(tetrahydropyran-4-yloxy)ethoxy]phenoxy}benzamide]
